These compounds were tested on MCF7 CSCs (assay: Dye internalization in MCF7 3D-mammospheres (fluorescent microscopy)). Conditions: nano-molar range.
Assay type: cell-based, Human

SMILES	incorporation into 3D-mammospheres
CCN1/C(=C/C=C/C=C/c2ccc3ccccc3[n+]2CC)C=Cc2ccccc21 [DDI]	efficiently incorporated
CCCN1/C(=C/C=C2\CCCC(/C=C/C3=[N+](CCC)c4ccccc4C3(C)C)=C2Cl)C(C)(C)c2ccccc21 [IR-780]	not taken up
CN1\C(=C/C=C/C=C/C=C/C2=[N+](C)c3ccccc3C2(C)C)C(C)(C)c2ccccc21 [HITC]	efficiently incorporated
